The values below come from PubChem BioAssay AID2685 (National Center for Advancing Translational Sciences (NCATS), 2010).

SMILES strings stand for the structures. The list shows a part of the results. These are further read-outs of the screen, such as a control signal, another cell line or another target. No call is given for them. The list favours compounds with an active or inconclusive main result. Words in brackets tell the shape of the fitted curve; partial curves, single points and poor fits give uncertain potencies.

The assay in a line: qHTS Assay for Lipid Storage Modulators in Drosophila S3 Cells.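 As to cell number change: cells counted by Cell Tracker Red CMTPX staining in the red channel.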 Particulars: BODIPY lipid droplet fluorescence, 18-24 h; for cell number change: measured here: cell count max response, cells fed with added oleic acid. The essentials:
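Drosophila S3 cells got compounds at several concentrations plus oleic acid (400 uM solution). Laser-scanning cytometry with 488 nm excitation read lipid droplets at 500-530 nm and cells at 575-640 nm. Percent activity was relative to 20 uM Triacsin C.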

The mark [1] stands for this setting: measured here: lipid fluorescence (Fed channel) AC50, cells fed with added oleic acid.
Setting [2] is: measured here: cell number channel AC50, cells fed with added oleic acid.

Take `O=S(=O)(Nc1cccnc1)c1ccc(Br)c2ccccc12`: the AC50 – broadly, the midpoint of the concentration-response curve, whichever way the signal moves – under setting [1] was 13 µM [falling, partial curve].
For the compound `CCOC(=O)c1[nH]c(C(=O)O)c(CCC(=O)OC)c1C`, the cell number change stood at 76.4%. Moreover, the AC50 under setting [2] was 23.1 µM [rising, single point]. The half-maximal activity concentration (AC50) under setting [1] was 1.84 µM [falling, single point].
Turning to `O=C1CC(c2ccccc2)Cc2nc(N3CCc4ccccc4C3)ncc21` (stereo not given), the cell number change stood at 1.45%. Besides, the AC50 under setting [2] is 0.00461 µM [falling, full curve, poor fit].
Take `COC(=O)c1c(-c2ccc(Br)cc2)noc1N`: the AC50 under setting [2] was 2.31 µM [rising, partial curve].
Take `CCC(=O)c1ccc(OCc2ccc(C(=O)OC)cc2)cc1`: the cell number change was -7.57%. For the same compound, the AC50 under setting [1] is 0.651 µM [falling, full curve, poor fit].
As to `CCc1ccc(C(=O)CN2C(=O)C(C)N(c3ccc(C)cc3)C2=O)cc1` (stereo not given), the cell number change amounted to 33.7%. Besides, the AC50 under setting [2] was 29.1 µM [rising, single point]. Further, under setting [1], the AC50 is 14.6 µM [rising, partial curve].
In the case of `CCNS(=O)(=O)c1ccc(CCC(=O)N2CCN(c3ccccc3)CC2)cc1`, the cell number change is -13.8%. For the same compound, under setting [1], the AC50 was 29.1 µM [rising, single point].
For the compound `COc1ccc(S(=O)(=O)Nc2cc(C)on2)cc1`, the cell number change is 21.1%.
Regarding `O=C1CCN(CCc2ccccc2)CCN1CCO`, the cell number change amounted to 32.7%. Moreover, the AC50 under setting [1] is 29.1 µM [rising, single point].
As for `Clc1ccc(Cc2ccccn2)cc1`, the cell number change is -21.4%. The AC50 under setting [2] is 3.66 µM [falling, full curve, poor fit]. Moreover, the AC50 under setting [1] was 3.26 µM [falling, full curve, poor fit].
On to `CCn1c(-c2cc(Br)cc(OC)c2O)nc2cc(S(=O)(=O)N(C)C)ccc21`, for which the cell number change was 0.99%. Under setting [2], the AC50 is 5.8 µM [rising, single point]. In addition, under setting [1], the AC50 is 5.8 µM [rising, partial curve].
For the compound `Cc1ccc(CNC(=O)C2CC(c3ccccc3F)=NO2)cc1` (stereo not given), the cell number change came to 38.3%. Also, the AC50 under setting [2] was 13 µM [rising, partial curve].
Take `COc1ccc(-c2csc(Cc3nc(O)cs3)n2)cc1`: the cell number change was 27.8%. For the same compound, the AC50 under setting [2] was 0.231 µM [rising, full curve, poor fit]. Moreover, under setting [1], the AC50 was 0.326 µM [rising, full curve].
In the case of `O=C(/C=C/c1ccc(F)cc1)Nc1nc2ccccc2[nH]1`, the AC50 is, setting by setting: under setting [2], 0.00461 µM [rising, full curve, poor fit]; under setting [1], 0.00461 µM [rising, full curve, poor fit].
For the compound `O=C(NC(N1CCOCC1)C(Cl)(Cl)Cl)c1ccccc1Cl` (stereo not given), the cell number change was -52.7%. The AC50 under setting [2] is 29.1 µM [falling, single point].
As to `Cc1ccc(S(=O)(=O)N2CCN(C(=O)c3cc4c(C)nn(-c5ccccc5)c4s3)CC2)cc1`, the AC50 runs as follows: under setting [2], 3.26 µM [rising, partial curve, poor fit]; under setting [1], 5.8 µM [rising, single point].
Take `COc1ccc(CC(=O)N2N=C(C)CC2(O)c2cccnc2)cc1` (stereo not given): the cell number change came to 8.83%. The AC50 under setting [1] was 29.1 µM [falling, single point].
For the compound `Cc1cc(NC(=O)CC23CC4CC(C2)CC(CC(=O)Nc2cc(C)on2)(C4)C3)no1`, the cell number change is -1.89%. Also, under setting [1], the concentration at half-maximal activity (AC50) is 2.31 µM [rising, partial curve].
`Cc1ccc(C(=O)COC(=O)CNC(=O)CN2C(=O)c3ccccc3C2=O)cc1`: the cell number change came out at 10.3%. For the same compound, under setting [1], the AC50 is 18.4 µM [falling, single point].
For `CCCN(CC(=O)Nc1ccccc1OC)C(=O)c1cc(S(=O)(=O)NCc2ccccc2)ccc1C`, the cell number change was determined as 22.2%. Under setting [1], the AC50 was 35.5 µM [rising, single point].
Consider `O=C(Nc1cccc2ccccc12)c1ccc([N+](=O)[O-])o1`, for which the cell number change was determined as 15%.
As to `COc1ccc(CCNC(=O)C(C)OC(=O)c2cccs2)cc1OC` (stereo not given), the cell number change was 15.3%. For the same compound, the AC50 under setting [1] is 29.1 µM [falling, single point].
As to `CC(C)CC(=O)OCc1cn(-c2ccccc2)nn1`, the cell number change was 5.9%. In addition, under setting [1], the AC50 was 29.1 µM [rising, single point].
On to `CC(C)(C)c1cc(-c2n[nH]c(=S)n2-c2ccc(Cl)cc2)n[nH]1`, for which the cell number change was -9.59%.
As for `CN1C(=CC=C2C=C(I)C(=O)C(I)=C2)C(C)(C)c2ccccc21`, the cell number change is -97.2%. The AC50 under setting [2] is 1.03 µM [falling, full curve]. Under setting [1], the AC50 is 0.651 µM [falling, full curve].
On to `CN(CCOc1ccccc1)C(=O)c1cc(COc2c(F)cccc2F)on1`, for which the cell number change was found to be 10.1%.
For the compound `CCCC[n+]1ccn(-c2nc3ccccc3nc2[N-]S(=O)(=O)c2ccc(Cl)cc2)c1`, the cell number change is 45.7%. In addition, the AC50 under setting [2] was 0.0259 µM [rising, full curve, poor fit]. Moreover, under setting [1], the AC50 was 4.11 µM [rising, full curve].
For `O=C(COc1ccccc1Cl)NNC(=O)c1ccc2c(=O)n3c(nc2c1)CCC3`, the cell number change turned out to be 19.2%. For the same compound, the AC50 under setting [1] was 4.11 µM [falling, single point].
Consider `CN1CCN(C(=O)/C(=C/c2ccccc2)c2ccccc2)CC1`, for which the cell number change was -30.9%. For the same compound, under setting [2], the concentration at half-maximal activity (AC50) was 29.1 µM [falling, single point]. Besides, under setting [1], the AC50 is 0.92 µM [falling, full curve, poor fit].
For the compound `O=C(/C=C/c1ccccc1)c1c[nH]c2ccccc12`, the cell number change was 21.7%. Further, the AC50 under setting [1] was 0.231 µM [rising, full curve, poor fit].
In the case of `Cc1csc(Nc2ccc(Cl)cc2)[n+]1-c1ccc(Cl)cc1`, the cell number change came out at 21.2%.
On to `COc1ccc(/C=C(\NC(=O)c2cccs2)C(=O)NC(C)(C)C)cc1OC`, for which the cell number change stood at 8.11%. Besides, under setting [1], the AC50 is 4.61 µM [rising, single point].
For the compound `CC12CC(c3ccccc3O1)C(C(=O)NCc1ccccc1)C(=O)N2` (stereo not given), under setting [1], the AC50 is 20.6 µM [falling, partial curve].
Take `COc1ccccc1C1=NOC(C)(c2sc(-c3ccc(Cl)cc3)nc2C)C1` (stereo not given): the cell number change amounted to 17.6%. In addition, the AC50 under setting [1] is 8.2 µM [rising, partial curve].
Take `CC(=O)c1ccc(NC(=O)CN2C(=O)NC(C)(C3CCCCC3)C2=O)cc1` (stereo not given): the cell number change was -3.61%. Moreover, under setting [1], the AC50 was 2.06 µM [falling, partial curve].
As for `O=C(OCc1cnc(Cl)s1)c1cccc(Cl)c1`, the cell number change worked out at 68.8%. Under setting [2], the AC50 was 29.1 µM [rising, partial curve, poor fit]. Also, under setting [1], the AC50 is 29.1 µM [rising, partial curve, poor fit].
Regarding `Cc1ccc(C(=O)NC(=S)NNC(=O)CC#N)cc1`, the cell number change was -18.5%. The AC50 under setting [1] was 13 µM [falling, single point].
